Test results from the supplement of paper PMC6078165.

Test system: HCC1143
Assay: relative JC-1 red fluorescence (viability) vs pre-drug, coculture with fibroblast (fraction); higher = more viable cancer cells
Method: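 JC-1 labelled TNBC cells cocultured 1:1 (1,500 cells each) with CellTrace Violet stained primary or stromal fibroblasts in 384-well plates in FluoroBrite medium, treated with one of 42 anticancer drugs at 0.1, 1, 10 or 100 uM. JC-1 red fluorescence (mitochondrial integrity in cancer cells only) was read by plate reader every 8 h for 72 h. Values are normalised to each well's pre-drug value. The stock of one drug was tenfold lower, so its dose labels may be too high.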

O=NN(CCCl)C(=O)NCCCl [Carmustine]
relative JC-1 red fluorescence
Details | 8 h | 16 h | 24 h | 32 h | 40 h | 48 h | 56 h | 64 h | 72 h
0.1 µM, coculture fibroblast: C12385 | 0.853 | 0.754 | 0.678 | 0.595 | 0.513 | 0.456 | 0.417 | 0.361 | 0.338
0.1 µM, coculture fibroblast: H6013 | 0.81 | 0.744 | 0.685 | 0.666 | 0.593 | 0.577 | 0.545 | 0.523 | 0.496
0.1 µM, coculture fibroblast: H6019 | 0.8065 | 0.718 | 0.668 | 0.598 | 0.543 | 0.504 | 0.451 | 0.408 | 0.365
0.1 µM, coculture fibroblast: H6076 | 0.819 | 0.798 | 0.737 | 0.727 | 0.662 | 0.652 | 0.621 | 0.597 | 0.617
0.1 µM, coculture fibroblast: H6231 | 0.8466 | 0.8549 | 0.8163 | 0.774 | 0.764 | 0.75 | 0.7218 | 0.687 | 0.668
0.1 µM, coculture fibroblast: HADF | 0.7362 | 0.6665 | 0.6138 | 0.6071 | 0.521 | 0.498 | 0.46 | 0.435 | 0.41
0.1 µM, coculture fibroblast: HCFa | 0.78 | 0.684 | 0.625 | 0.601 | 0.51 | 0.471 | 0.425 | 0.391 | 0.366
0.1 µM, coculture fibroblast: HCPF | 0.807 | 0.811 | 0.729 | 0.646 | 0.629 | 0.599 | 0.559 | 0.521 | 0.504
0.1 µM, coculture fibroblast: HHSteC | 0.831 | 0.737 | 0.671 | 0.641 | 0.557 | 0.51 | 0.466 | 0.434 | 0.391
0.1 µM, coculture fibroblast: HMF | 0.812 | 0.7658 | 0.71 | 0.717 | 0.636 | 0.626 | 0.592 | 0.579 | 0.576
0.1 µM, coculture fibroblast: HPFa | 0.9167 | 0.8319 | 0.7902 | 0.696 | 0.627 | 0.591 | 0.521 | 0.465 | 0.426
0.1 µM, coculture fibroblast: HUF | 0.8606 | 0.769 | 0.705 | 0.63269 | 0.579 | 0.5506 | 0.5033 | 0.4691 | 0.4415
0.1 µM, coculture fibroblast: Hs5 | 0.8506 | 0.778 | 0.746 | 0.754 | 0.6666 | 0.644 | 0.6174 | 0.5938 | 0.5955
0.1 µM, coculture fibroblast: Hs27A | 0.683 | 0.592 | 0.542 | 0.562 | 0.426 | 0.401 | 0.348 | 0.31 | 0.296
0.1 µM, coculture fibroblast: Hs343T | 0.807 | 0.794 | 0.721 | 0.709 | 0.634 | 0.601 | 0.564 | 0.537 | 0.525
0.1 µM, coculture fibroblast: WS1 | 0.809 | 0.711 | 0.648 | 0.581 | 0.518 | 0.475 | 0.425 | 0.389 | 0.36
1 µM, coculture fibroblast: C12385 | 0.821 | 0.776 | 0.711 | 0.671 | 0.604 | 0.578 | 0.548 | 0.517 | 0.51
1 µM, coculture fibroblast: H6013 | 0.729 | 0.674 | 0.635 | 0.608 | 0.549 | 0.538 | 0.504 | 0.488 | 0.444
1 µM, coculture fibroblast: H6019 | 0.808 | 0.7508 | 0.7141 | 0.64471 | 0.606 | 0.5827 | 0.5361 | 0.4931 | 0.459
1 µM, coculture fibroblast: H6076 | 0.8024 | 0.739 | 0.717 | 0.722 | 0.6548 | 0.655 | 0.638 | 0.622 | 0.644
1 µM, coculture fibroblast: H6231 | 0.8028 | 0.77 | 0.706 | 0.66 | 0.609 | 0.584 | 0.5491 | 0.51226 | 0.498
1 µM, coculture fibroblast: HADF | 0.7305 | 0.648 | 0.6039 | 0.594 | 0.5049 | 0.483 | 0.449 | 0.423 | 0.389
1 µM, coculture fibroblast: HCFa | 0.787 | 0.731 | 0.682 | 0.661 | 0.585 | 0.557 | 0.51 | 0.473 | 0.449
1 µM, coculture fibroblast: HCPF | 0.776 | 0.729 | 0.687 | 0.645 | 0.606 | 0.573 | 0.549 | 0.52 | 0.511
1 µM, coculture fibroblast: HHSteC | 0.792 | 0.728 | 0.694 | 0.657 | 0.594 | 0.57 | 0.532 | 0.502 | 0.441
1 µM, coculture fibroblast: HMF | 0.807 | 0.763 | 0.734 | 0.743 | 0.686 | 0.671 | 0.652 | 0.644 | 0.64
1 µM, coculture fibroblast: HPFa | 0.876 | 0.8004 | 0.756 | 0.662 | 0.6 | 0.561 | 0.491 | 0.436 | 0.393
1 µM, coculture fibroblast: HUF | 0.835 | 0.7543 | 0.708 | 0.628 | 0.5858 | 0.557 | 0.51 | 0.482 | 0.456
1 µM, coculture fibroblast: Hs5 | 0.841 | 0.772 | 0.749 | 0.752 | 0.666 | 0.642 | 0.619 | 0.588 | 0.582
1 µM, coculture fibroblast: Hs27A | 0.715 | 0.624 | 0.579 | 0.579 | 0.466 | 0.46 | 0.405 | 0.373 | 0.331
1 µM, coculture fibroblast: Hs343T | 0.798 | 0.773 | 0.719 | 0.668 | 0.61 | 0.578 | 0.544 | 0.523 | 0.50439
1 µM, coculture fibroblast: WS1 | 0.7826 | 0.7075 | 0.673 | 0.597 | 0.544 | 0.507 | 0.466 | 0.439 | 0.412

The reference is the same well before dosing, and untreated signal decays as well.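 Fibroblast labels name human fibroblasts: mostly primary ones from tissues such as uterus (C12385, HUF), lung (H6013), bone (Hs27A), adrenal (HADF) and skin (WS1), plus mammary HMF and breast cancer-associated Hs343T. The cancer cells are basal-like or mesenchymal-like triple-negative breast cancer lines. The paper calls a changed response a hit when it shifts by more than 3x the replicate standard deviation. The tissue of the other fibroblasts is not given here.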
